Experimental data taken from paper PMC6357186.
Results are given in words; binding and its absence hold for the method and conditions named. Binding seen in cells or lysates may run through a third protein. Some results given as binding are weak or reduced against the parent protein; the word gives no strength.

Sequences of proteins named here, by UniProt entry; tags and fusion partners are left off.
UniProt P35222: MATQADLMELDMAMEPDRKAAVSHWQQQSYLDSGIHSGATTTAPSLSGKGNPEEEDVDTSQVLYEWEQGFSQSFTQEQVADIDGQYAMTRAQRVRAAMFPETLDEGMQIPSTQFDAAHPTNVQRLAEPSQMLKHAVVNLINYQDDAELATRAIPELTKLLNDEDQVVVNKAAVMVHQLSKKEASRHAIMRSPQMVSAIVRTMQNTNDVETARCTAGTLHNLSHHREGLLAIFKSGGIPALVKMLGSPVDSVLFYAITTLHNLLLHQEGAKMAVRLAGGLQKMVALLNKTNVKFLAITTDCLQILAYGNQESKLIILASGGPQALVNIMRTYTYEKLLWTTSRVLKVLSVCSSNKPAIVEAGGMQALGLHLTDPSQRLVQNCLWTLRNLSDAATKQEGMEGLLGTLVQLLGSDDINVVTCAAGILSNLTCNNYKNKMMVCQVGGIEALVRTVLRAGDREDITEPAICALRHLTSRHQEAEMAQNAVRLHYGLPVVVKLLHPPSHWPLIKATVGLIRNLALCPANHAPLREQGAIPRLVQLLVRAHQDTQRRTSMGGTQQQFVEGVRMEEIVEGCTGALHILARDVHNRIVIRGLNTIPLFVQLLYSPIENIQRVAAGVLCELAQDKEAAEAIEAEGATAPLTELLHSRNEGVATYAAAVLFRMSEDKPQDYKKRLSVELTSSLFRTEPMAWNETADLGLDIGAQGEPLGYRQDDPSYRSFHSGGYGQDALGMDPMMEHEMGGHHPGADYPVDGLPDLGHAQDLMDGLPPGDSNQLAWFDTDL
UniProt P08727: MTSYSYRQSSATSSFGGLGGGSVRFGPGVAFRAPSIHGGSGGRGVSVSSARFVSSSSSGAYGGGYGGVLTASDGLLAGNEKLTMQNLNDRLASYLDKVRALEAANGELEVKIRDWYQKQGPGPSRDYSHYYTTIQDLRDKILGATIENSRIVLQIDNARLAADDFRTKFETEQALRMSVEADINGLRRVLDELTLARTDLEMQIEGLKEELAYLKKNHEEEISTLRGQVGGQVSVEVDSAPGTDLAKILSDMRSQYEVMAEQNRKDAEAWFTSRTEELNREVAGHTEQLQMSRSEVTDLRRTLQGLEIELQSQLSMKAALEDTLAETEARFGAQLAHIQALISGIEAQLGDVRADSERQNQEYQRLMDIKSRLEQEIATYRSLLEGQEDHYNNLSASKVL

Columns and labels:
[1] = target: β-catenin (human (endogenous in colon and breast cancer cell lines)) (UniProt P35222); test: co-IP; breast cancer cells (lines as indicated in Figure 5c); 400 µg cell lysate precleared with protein A/G agarose, 3 to 4 µg primary antibody or normal IgG overnight at 4 °C, protein A/G agarose 3 h, washed thrice with cell lysis buffer, Western blot
[2] = target: β-catenin (human (endogenous in colon and breast cancer cell lines)) (UniProt P35222); test: co-IP; colon cancer cells (lines as indicated in Figure 5c); 400 µg cell lysate precleared with protein A/G agarose, 3 to 4 µg primary antibody or normal IgG overnight at 4 °C, protein A/G agarose 3 h, washed thrice with cell lysis buffer, Western blot

binding [1]: binds
binding [2]: binds
Substance: Keratin 19 (from UniProt P08727 1-400)
